Source: the supplement of paper PMC10849652
This is one part of the list.

Amino acid sequences for entries named in this document (tags omitted). A change or cut given only in a name is not applied to a line headed by its entry.
UniProt P35914: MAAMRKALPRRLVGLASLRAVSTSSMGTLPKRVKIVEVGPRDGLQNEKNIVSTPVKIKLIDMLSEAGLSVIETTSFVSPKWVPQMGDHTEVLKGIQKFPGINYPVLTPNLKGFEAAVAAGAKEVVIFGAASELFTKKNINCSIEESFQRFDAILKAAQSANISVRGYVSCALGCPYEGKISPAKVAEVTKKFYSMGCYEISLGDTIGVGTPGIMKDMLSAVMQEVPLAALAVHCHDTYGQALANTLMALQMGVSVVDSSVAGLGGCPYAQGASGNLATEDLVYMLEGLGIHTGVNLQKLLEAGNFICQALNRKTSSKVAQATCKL
UniProt O15347: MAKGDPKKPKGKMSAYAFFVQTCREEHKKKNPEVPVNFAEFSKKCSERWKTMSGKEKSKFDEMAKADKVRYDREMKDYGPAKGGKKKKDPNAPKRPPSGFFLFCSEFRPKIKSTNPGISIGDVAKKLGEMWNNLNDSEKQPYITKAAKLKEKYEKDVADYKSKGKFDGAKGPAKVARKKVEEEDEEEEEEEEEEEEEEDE
UniProt Q9NX55: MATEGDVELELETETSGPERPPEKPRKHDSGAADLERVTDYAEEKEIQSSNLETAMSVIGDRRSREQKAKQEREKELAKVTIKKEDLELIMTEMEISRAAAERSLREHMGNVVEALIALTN
UniProt P10809, whole entry, looked up: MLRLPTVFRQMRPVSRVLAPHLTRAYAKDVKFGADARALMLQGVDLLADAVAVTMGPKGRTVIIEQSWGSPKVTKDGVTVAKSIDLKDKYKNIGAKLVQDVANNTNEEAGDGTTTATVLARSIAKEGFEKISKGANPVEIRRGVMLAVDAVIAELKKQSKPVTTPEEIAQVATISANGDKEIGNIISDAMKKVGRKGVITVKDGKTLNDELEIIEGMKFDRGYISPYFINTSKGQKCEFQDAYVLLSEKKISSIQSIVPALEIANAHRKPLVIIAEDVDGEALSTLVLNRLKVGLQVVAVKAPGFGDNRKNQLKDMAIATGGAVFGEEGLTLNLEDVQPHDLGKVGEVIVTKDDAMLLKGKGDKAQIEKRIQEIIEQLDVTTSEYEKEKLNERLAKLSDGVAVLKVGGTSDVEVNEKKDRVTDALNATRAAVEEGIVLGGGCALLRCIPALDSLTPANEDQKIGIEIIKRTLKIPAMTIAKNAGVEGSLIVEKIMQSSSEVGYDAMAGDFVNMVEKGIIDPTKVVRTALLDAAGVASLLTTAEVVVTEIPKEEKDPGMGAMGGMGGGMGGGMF
UniProt Q8TCT9: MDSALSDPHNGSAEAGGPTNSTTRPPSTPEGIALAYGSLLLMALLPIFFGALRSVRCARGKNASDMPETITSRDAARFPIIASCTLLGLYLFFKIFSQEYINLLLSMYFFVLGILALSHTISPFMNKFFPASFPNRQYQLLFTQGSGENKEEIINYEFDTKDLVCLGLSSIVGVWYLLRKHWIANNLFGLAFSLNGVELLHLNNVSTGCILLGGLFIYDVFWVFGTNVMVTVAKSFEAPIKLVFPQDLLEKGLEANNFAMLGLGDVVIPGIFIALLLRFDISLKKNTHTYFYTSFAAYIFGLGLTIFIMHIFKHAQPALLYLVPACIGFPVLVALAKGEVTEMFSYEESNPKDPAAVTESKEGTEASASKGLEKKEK
UniProt Q8WVV9: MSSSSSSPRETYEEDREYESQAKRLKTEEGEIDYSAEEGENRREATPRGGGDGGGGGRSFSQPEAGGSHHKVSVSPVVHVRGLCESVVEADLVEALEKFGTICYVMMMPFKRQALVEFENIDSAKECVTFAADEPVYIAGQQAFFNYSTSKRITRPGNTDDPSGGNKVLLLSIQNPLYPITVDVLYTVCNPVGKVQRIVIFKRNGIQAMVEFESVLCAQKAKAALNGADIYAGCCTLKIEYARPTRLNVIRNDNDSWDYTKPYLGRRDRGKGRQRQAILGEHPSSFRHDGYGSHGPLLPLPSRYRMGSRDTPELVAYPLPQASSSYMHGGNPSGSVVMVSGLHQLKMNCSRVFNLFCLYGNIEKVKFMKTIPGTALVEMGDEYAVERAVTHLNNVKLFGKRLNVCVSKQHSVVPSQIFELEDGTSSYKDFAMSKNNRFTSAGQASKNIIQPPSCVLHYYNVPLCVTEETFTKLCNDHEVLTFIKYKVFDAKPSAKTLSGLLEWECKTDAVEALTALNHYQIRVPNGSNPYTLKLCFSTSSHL
UniProt Q01581: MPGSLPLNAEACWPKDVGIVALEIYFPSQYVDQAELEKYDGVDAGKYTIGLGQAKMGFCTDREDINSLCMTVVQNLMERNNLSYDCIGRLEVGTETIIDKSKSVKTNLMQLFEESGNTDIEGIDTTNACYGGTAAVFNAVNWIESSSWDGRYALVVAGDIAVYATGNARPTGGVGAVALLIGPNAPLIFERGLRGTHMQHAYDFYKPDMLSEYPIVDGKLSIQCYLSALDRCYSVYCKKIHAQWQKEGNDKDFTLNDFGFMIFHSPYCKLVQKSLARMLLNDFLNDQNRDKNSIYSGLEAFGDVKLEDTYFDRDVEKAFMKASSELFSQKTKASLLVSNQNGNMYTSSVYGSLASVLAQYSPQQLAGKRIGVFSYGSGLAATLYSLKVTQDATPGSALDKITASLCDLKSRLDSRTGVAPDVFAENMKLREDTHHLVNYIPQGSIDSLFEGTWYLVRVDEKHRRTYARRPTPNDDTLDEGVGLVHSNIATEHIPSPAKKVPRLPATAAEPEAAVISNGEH
UniProt Q9NSE4: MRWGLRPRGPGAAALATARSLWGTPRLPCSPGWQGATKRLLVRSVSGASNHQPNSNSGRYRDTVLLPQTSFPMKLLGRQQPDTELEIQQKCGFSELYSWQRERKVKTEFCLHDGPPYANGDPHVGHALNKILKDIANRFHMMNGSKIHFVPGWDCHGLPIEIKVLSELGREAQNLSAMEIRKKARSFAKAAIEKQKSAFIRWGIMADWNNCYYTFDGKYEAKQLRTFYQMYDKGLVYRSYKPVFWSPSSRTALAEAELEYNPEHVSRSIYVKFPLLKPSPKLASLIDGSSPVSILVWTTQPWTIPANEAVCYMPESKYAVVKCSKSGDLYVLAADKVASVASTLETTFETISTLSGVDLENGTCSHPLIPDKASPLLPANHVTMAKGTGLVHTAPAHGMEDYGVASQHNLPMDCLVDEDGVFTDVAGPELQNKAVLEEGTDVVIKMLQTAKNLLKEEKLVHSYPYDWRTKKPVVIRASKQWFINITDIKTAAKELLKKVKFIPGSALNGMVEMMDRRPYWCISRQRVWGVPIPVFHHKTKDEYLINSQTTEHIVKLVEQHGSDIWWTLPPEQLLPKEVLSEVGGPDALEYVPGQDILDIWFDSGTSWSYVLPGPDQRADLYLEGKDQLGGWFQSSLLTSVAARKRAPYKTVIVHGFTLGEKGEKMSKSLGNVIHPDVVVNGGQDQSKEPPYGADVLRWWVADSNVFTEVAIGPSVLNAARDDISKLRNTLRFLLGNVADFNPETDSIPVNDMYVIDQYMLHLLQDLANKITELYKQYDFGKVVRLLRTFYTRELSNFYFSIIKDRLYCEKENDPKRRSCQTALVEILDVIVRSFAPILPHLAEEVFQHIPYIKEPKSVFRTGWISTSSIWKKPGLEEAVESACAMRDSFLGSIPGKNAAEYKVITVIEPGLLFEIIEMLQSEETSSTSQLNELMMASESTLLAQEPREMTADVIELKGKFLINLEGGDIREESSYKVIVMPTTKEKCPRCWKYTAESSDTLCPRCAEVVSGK
UniProt Q86YM7: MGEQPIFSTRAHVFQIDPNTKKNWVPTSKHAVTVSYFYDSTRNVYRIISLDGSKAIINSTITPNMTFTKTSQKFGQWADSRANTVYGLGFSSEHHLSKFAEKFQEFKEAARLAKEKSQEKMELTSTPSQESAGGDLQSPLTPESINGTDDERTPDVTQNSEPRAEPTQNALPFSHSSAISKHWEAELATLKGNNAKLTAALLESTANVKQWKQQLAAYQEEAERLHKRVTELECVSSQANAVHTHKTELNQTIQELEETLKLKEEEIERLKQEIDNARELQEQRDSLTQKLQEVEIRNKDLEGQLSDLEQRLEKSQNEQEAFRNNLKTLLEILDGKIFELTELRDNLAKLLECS
UniProt Q1KMD3: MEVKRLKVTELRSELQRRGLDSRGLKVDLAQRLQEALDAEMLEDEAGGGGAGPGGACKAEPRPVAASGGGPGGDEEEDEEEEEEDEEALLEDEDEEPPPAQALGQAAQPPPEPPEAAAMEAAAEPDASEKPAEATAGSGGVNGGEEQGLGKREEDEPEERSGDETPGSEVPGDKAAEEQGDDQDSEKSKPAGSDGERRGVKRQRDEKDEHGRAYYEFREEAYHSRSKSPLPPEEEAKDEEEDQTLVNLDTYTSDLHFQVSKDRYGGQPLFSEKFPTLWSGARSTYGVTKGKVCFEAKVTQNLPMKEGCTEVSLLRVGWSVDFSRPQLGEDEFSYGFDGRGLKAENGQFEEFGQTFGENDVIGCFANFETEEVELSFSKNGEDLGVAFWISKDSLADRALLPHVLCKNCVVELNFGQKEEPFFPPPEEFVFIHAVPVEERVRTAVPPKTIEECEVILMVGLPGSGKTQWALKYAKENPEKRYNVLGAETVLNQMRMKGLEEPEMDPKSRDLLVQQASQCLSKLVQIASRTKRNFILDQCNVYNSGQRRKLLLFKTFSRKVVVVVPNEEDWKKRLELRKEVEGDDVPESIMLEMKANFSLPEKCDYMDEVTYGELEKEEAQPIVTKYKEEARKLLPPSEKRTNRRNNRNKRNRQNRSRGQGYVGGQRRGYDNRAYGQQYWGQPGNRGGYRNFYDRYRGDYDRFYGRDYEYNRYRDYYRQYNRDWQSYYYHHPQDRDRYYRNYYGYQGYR
UniProt P09651: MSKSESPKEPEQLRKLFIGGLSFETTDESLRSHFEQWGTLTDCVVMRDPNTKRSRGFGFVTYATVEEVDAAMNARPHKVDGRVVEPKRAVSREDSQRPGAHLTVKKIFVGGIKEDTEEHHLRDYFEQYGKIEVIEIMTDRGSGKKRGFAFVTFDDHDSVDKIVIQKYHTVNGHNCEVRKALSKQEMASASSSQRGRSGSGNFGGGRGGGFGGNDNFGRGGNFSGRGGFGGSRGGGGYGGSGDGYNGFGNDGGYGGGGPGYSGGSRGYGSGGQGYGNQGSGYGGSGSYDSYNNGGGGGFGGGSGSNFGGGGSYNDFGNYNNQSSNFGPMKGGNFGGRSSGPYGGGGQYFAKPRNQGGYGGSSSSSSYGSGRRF
UniProt Q9Y547: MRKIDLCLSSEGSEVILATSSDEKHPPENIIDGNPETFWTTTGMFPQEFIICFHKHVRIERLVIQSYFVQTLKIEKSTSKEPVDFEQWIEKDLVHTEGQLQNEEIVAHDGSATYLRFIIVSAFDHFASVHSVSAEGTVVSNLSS
UniProt O60725, whole entry, looked up: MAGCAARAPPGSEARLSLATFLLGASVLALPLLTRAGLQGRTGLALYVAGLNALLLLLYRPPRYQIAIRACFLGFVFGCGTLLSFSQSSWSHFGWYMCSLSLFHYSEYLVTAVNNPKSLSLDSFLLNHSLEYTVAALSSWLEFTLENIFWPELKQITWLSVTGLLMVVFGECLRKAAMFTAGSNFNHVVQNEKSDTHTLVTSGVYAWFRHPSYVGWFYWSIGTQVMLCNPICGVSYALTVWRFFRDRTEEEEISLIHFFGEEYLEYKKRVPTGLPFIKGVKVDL

How the values were obtained:
Assay in all cases: log2 fold change, soluble protein after heating vs DMSO (PISA); higher = thermal stabilisation; K562 cells, 10 uM, 30 min; active = over 0.2 and 3.5 SD of the protein, either way, in both replicates (recomputed)
erlotinib = compound: C#Cc1cccc(Nc2ncnc3cc(OCCOC)c(OCCOC)cc23)c1 [erlotinib]
Outline: (§1)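 Soluble protein was defined as the supernatant after 21,000xg for 90 min. It came from K562 cells at 2×10^6 cells/mL given 10 μM compound for 30 min, heated in aliquots for 3 min across 48°C-58°C, pooled, and extracted in PBS with 0.5% NP-40 at 4°C, and was quantified by TMTpro 16plex LC-MS/MS with equalised channel sums. Thermal stability against control samples, from duplicates, is reported as log2 fold change.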

[1] = compound: C/C(=N\NC(=O)C1=CC(=CC=C1)S(=O)(=O)N2CCOCC2)/C3=C(C=CC(=C3)Cl)O
Outline: as §1

[2] = compound: C1=CC(=C(C=C1Cl)C2=NC3=NC=CN=C3C(=N2)NC4=CC=NC=C4)F
Outline: as §1

[3] = compound: C1=CC(=CC=C1C2=NC3=C(N2)C=C(C=C3)C(=O)N)OC4=CC=C(C=C4)Cl
Outline: as §1

[4] = compound: C1=CC2=C(C=CC(=C2)/C=C\3/C(=O)NC(=NCC4=CC=CS4)S3)N=C1
Outline: as §1

[5] = compound: C1=CC2=NC=CN=C2C=C1/C=C/3\C(=O)NC(=O)S3
Outline: as §1

[6] = compound: C1=CC=C(C=C1)C2=NC(=C(N2)C3=CC=NC=C3)C4=CC(=C(C=C4)Cl)O
Outline: as §1

[7] = compound: C1=CC=C2C(=C1)C3=NNC4=CC=CC(=C43)C2=O
Outline: as §1

[8] = compound: C1CCN(C1)C(=O)NC2=CC=CC(=C2)NC3=NC=C(C(=N3)NCCC4=CN=CN4)Br
Outline: as §1

[9] = compound: C1CN(CCC1(CC2=CC=C(C=C2)Cl)N)C3=NC=NC4=C3C=CN4
Outline: as §1

Measured: log2 fold change

HMGCL (UniProt P35914)
inactive: erlotinib -0.02 | [1] -0.065 | [2] 0.047 | [3] 0.005 | [4] 0.026 | [5] -0.046 | [6] 0.071 | [7] 0.027 | [8] -0.056 | [9] 0.053

HMGB3 (UniProt O15347)
active: [4] -0.267
inactive: erlotinib -0.037 | [1] -0.002 | [2] 0.047 | [3] 0.011 | [5] -0.042 | [6] 0.095 | [7] -0.006 | [8] -0.025 | [9] 0.023

HYPK (UniProt Q9NX55)
inactive: erlotinib -0.029 | [1] 0.013 | [2] 0.049 | [3] -0.02 | [4] 0.056 | [5] 0.001 | [6] -0.014 | [7] -0.006 | [8] 0.011 | [9] -0.005

HSPD1 (UniProt P10809)
inactive: erlotinib 0.007 | [1] -0.028 | [2] -0.043 | [3] -0.01 | [4] -0.009 | [5] -0.002 | [6] -0.006 | [7] 0.032 | [8] 0.017 | [9] 0.044

HM13 isoform 2 (UniProt Q8TCT9)
inactive: erlotinib 0.014 | [1] 0.017 | [2] 0.034 | [3] -0.016 | [4] 0.004 | [5] 0.033 | [6] -0.022 | [7] -0.03 | [8] 0.055 | [9] 0.056

HNRNPLL (UniProt Q8WVV9)
inactive: erlotinib 0.081 | [1] 0.11 | [2] -0.034 | [3] -0.001 | [4] 0.057 | [5] -0.034 | [6] 0.064 | [7] 0 | [8] -0.131 | [9] 0.008

HMGCS1 (UniProt Q01581)
inactive: erlotinib 0.009 | [1] 0.002 | [2] 0.059 | [3] -0.008 | [4] 0.012 | [5] -0.188 | [6] 0.034 | [7] -0.052 | [8] 0.004 | [9] 0.052

IARS2 (UniProt Q9NSE4)
inactive: erlotinib 0.001 | [1] 0.023 | [2] 0.021 | [3] 0.019 | [4] -0.024 | [5] 0.02 | [6] -0.003 | [7] -0.014 | [8] 0.015 | [9] 0.046

HSPA8 (UniProt E9PK54)
inactive: erlotinib -0.008 | [1] 0 | [2] -0.346 | [3] 0.032 | [4] 0 | [5] 0.034 | [6] -0.211 | [7] -0.095 | [8] -0.056 | [9] -0.158

2 records drawn at random from those above, as already listed:
IARS2 (UniProt Q9NSE4)
inactive: erlotinib 0.001 | [1] 0.023 | [2] 0.021 | [3] 0.019 | [4] -0.024 | [5] 0.02 | [6] -0.003 | [7] -0.014 | [8] 0.015 | [9] 0.046

HMGCS1 (UniProt Q01581)
inactive: erlotinib 0.009 | [1] 0.002 | [2] 0.059 | [3] -0.008 | [4] 0.012 | [5] -0.188 | [6] 0.034 | [7] -0.052 | [8] 0.004 | [9] 0.052

The results go on.

HOMER1 (UniProt Q86YM7)
inactive: erlotinib -0.103 | [1] -0.015 | [2] -0.05 | [3] 0.016 | [4] 0.021 | [5] 0.074 | [6] -0.057 | [7] -0.015 | [8] 0.062 | [9] -0.011

HNRNPUL2 (UniProt Q1KMD3)
inactive: erlotinib -0.054 | [1] -0.08 | [2] -0.138 | [3] -0.015 | [4] -0.057 | [5] 0.012 | [6] -0.056 | [7] -0.014 | [8] 0.011 | [9] -0.102

HNRNPA1 (UniProt P09651)
inactive: erlotinib -0.161 | [1] -0.184 | [2] -0.435 | [3] 0.038 | [4] -0.063 | [5] 0.033 | [6] -0.097 | [7] 0.003 | [8] -0.011 | [9] -0.138

HSPB11 (UniProt Q9Y547)
inactive: erlotinib -0.024 | [1] 0.014 | [2] 0.049 | [3] 0.073 | [4] 0.075 | [5] 0.036 | [6] 0.013 | [7] 0.079 | [8] -0.058 | [9] 0.03

HSPG2 (UniProt P98160)
inactive: erlotinib -0.079 | [1] 0.027 | [2] 0.016 | [3] 0.01 | [4] 0.026 | [5] 0.013 | [6] -0.126 | [7] -0.006 | [8] 0.011 | [9] -0.051

ICMT (UniProt O60725)
inactive: erlotinib 0.059 | [1] -0.081 | [2] 0.015 | [3] -0.001 | [4] 0.214 | [5] -0.064 | [6] 0.122 | [7] -0.038 | [8] -0.206 | [9] -0.032
